No constants are given. Whether binding was seen depends on the method and setting. Some binding calls cover weakened binding; strength is not graded here. Sequences can lack the tags named with a protein.
Target: mouse RANKL transiently expressed by HEK-293 cells (mouse) (UniProt O35235)
Experiment: flow cytometry on HEK-293 cells transiently transfected with muRANKL

Amino acid sequences for entries named in this document (tags omitted).
UniProt O35235: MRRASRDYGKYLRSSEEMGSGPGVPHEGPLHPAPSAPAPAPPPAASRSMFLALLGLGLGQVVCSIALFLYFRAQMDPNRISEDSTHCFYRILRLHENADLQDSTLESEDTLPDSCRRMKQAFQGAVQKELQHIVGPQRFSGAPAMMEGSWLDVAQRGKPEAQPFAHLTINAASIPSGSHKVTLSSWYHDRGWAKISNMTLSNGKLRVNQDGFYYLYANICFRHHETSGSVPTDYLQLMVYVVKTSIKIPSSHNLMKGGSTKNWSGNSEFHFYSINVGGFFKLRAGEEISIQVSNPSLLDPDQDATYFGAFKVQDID

binding: binds
B1: recombinant murine RANK-Fc (Fc fusion, mouse, UniProt O35305 31-214, looked up, not shown: a dimerising Fc or GST)
chain: VTPPCTQERHYEHLGRCCSRCEPGKYLSSKCTPTSDSVCLPCGPDEYLDTWNEEDKCLLHKVCDAGKALVAVDPGNHTAPRRCACTAGYHWNSDCECCRRNTECAPGFGAQHPLQLNKDTVCTPCLLGFFSDVFSSTDKCKPWTNCTLLGKLEAHQGTTESDVVCSSSMTLRRPPKEAQAYLPS
modifications: biotinylated

Reference: US20230042913A1 (COUNCIL OF THE QUEENSLAND INSTITUTE OF MEDICAL RESEARCH, published 2023)
